{
  "source": "PubChem BioAssay AID248",
  "about": "(DTP/NCI, 2004)",
  "tested_on": "L1210 leukemia ip in BDF1 mice, survival T/C",
  "experiment": "NCI In Vivo Anticancer Drug Screen. Data for tumor model L1210 Leukemia (intraperitoneal) in B6D2F1 (BDF1) mice",
  "conditions": "T/C endpoint: mean survival time, higher T/C = longer survival",
  "key": {"[1]": {"conditions": "dose: 100.0 mg/kg/injection, schedule: Q01DX Z (ip), vehicle: methylcellulose (MC)"}, "[2]": {"conditions": "dose: 400.0 mg/kg/injection, schedule: Q04DX003 (ip), vehicle: saline"}, "[3]": {"conditions": "dose: 400.0 mg/kg/injection, schedule: Q01DX001 (ip), vehicle: saline with Tween-80"}},
  "note": "The list does not hold the whole screen: it is rich in T/C values a quarter to a half above the control, in often repeated tests (any T/C) and in doses without a T/C. Other doses and runs of a compound stand elsewhere. T/C gives the treated animals as a percentage of the vehicle group. Some entries give survivors of the animals treated and no T/C: the source holds a T/C of zero for them, seemingly a mark for toxic or unscored doses. Some doses without a T/C left all or most animals alive at the check, yet need not have been tolerated: survival well below the control is almost never listed, so the zero probably covers shortened survival too. Survivors were counted at the toxicity check, usually on the fifth day, unless a day is given; later deaths do not show. Schedule codes are those of the source, read here as Q, the interval in days (D) or hours (H), X, the number of doses. Some schedule codes hold Z or #, which are not explained here. For survival time, the PubChem record calls one and a half times the control and up active, and a quarter to a half above the control has no call in these data; cut-offs in other NCI protocols can differ.",
  "data": [
    {"smiles": "CCCCCCCCCCCc1n(Cc2ccccc2)cc[n+]1C", "values": [
      {"measurement": "survivor count", "setting": "dose: 2.0 mg/kg/injection, schedule: Q01DX009 (ip), vehicle: acetone", "value": "3 of 6"},
      {"measurement": "survivor count", "setting": "dose: 4.0 mg/kg/injection, schedule: Q01DX001 (ip), vehicle: saline", "value": "1 of 4"},
      {"measurement": "survivor count", "setting": "dose: 4.0 mg/kg/injection, schedule: Q04DX003 (ip), vehicle: saline", "value": "1 of 6"},
      {"measurement": "survivor count", "setting": "dose: 8.0 mg/kg/injection, schedule: Q04DX003 (ip), vehicle: saline", "value": "3 of 6"}
    ]},
    {"smiles": "N#[N+]c1c(C(=O)O)[nH]c(=O)[nH]c1=O", "values": [
      {"measurement": "T/C", "setting": "dose: 12.5 mg/kg/injection, schedule: Q01DX Z (ip), vehicle: carboxymethylcellulose (CMC)", "value": "132 % of control"},
      {"measurement": "T/C", "setting": "dose: 25.0 mg/kg/injection, schedule: Q01DX009 (ip), vehicle: saline with Tween-80", "value": "141 % of control"},
      {"measurement": "T/C", "setting": "dose: 25.0 mg/kg/injection, schedule: Q01DX Z (ip), vehicle: carboxymethylcellulose (CMC)", "value": "135 % of control"},
      {"measurement": "T/C", "setting": "dose: 25.0 mg/kg/injection, schedule: Q01DX Z (ip), vehicle: methylcellulose (MC)", "value": "127 % of control"},
      {"measurement": "T/C", "setting": "dose: 50.0 mg/kg/injection, schedule: Q01DX Z (ip), vehicle: methylcellulose (MC)", "value": "140 % of control"},
      {"measurement": "survivor count", "setting": "dose: 100.0 mg/kg/injection, schedule: Q01DX Z (ip), vehicle: carboxymethylcellulose (CMC)", "value": "0 of 6"},
      {"measurement": "survivor count", "setting": "[1]", "value": "1 of 6"},
      {"measurement": "survivor count", "setting": "dose: 200.0 mg/kg/injection, schedule: Q01DX Z (ip), vehicle: carboxymethylcellulose (CMC)", "value": "0 of 6"},
      {"measurement": "survivor count", "setting": "dose: 200.0 mg/kg/injection, schedule: Q01DX Z (ip), vehicle: methylcellulose (MC)", "value": "0 of 6"},
      {"measurement": "survivor count", "setting": "dose: 600.0 mg/kg/injection, schedule: Q01DX009 (ip), vehicle: saline", "value": "4 of 6"}
    ]},
    {"smiles": "Clc1ccc([PH+](c2ccc(Cl)cc2)c2ccc(Cl)cc2)cc1.Clc1ccc([PH+](c2ccc(Cl)cc2)c2ccc(Cl)cc2)cc1.[Cl][Hg][Cl]", "values": [
      {"measurement": "survivor count", "setting": "dose: 100.0 mg/kg/injection, schedule: Q01DX009 (ip), vehicle: Klucel (hydroxypropylcellulose) (HPC)", "value": "3 of 3"},
      {"measurement": "survivor count", "setting": "dose: 200.0 mg/kg/injection, schedule: Q01DX009 (ip), vehicle: Klucel (hydroxypropylcellulose) (HPC)", "value": "3 of 3"}
    ]},
    {"smiles": "CCC(C)N=C(N)C(N)=NC(C)CC", "note": "(stereo not drawn)", "values": [
      {"measurement": "survivor count", "setting": "dose: 400.0 mg/kg/injection, schedule: Q04DX002 (ip), vehicle: saline", "value": "1 of 3"}
    ]},
    {"smiles": "CCN(CC)CCOc1ccc(Br)cc1", "values": [
      {"measurement": "survivor count", "setting": "dose: 200.0 mg/kg/injection, schedule: Q01DX009 (ip), vehicle: saline", "value": "2 of 6"},
      {"measurement": "survivor count", "setting": "dose: 200.0 mg/kg/injection, schedule: Q04DX003 (ip), vehicle: saline", "value": "2 of 6"},
      {"measurement": "survivor count", "setting": "[2]", "value": "0 of 6"}
    ]},
    {"smiles": "CC[N+]1=NC2CCCC(C2)C1", "note": "(stereo not drawn)", "values": [
      {"measurement": "survivor count", "setting": "[2]", "value": "0 of 6"}
    ]},
    {"smiles": "CN(C)NC(=O)C(c1ccccc1)c1ccccc1", "values": [
      {"measurement": "survivor count", "setting": "dose: 200.0 mg/kg/injection, schedule: Q04DX003 (ip), vehicle: saline with Tween-80", "value": "3 of 6"},
      {"measurement": "survivor count", "setting": "dose: 400.0 mg/kg/injection, schedule: Q04DX003 (ip), vehicle: saline with Tween-80", "value": "1 of 6"}
    ]},
    {"smiles": "C=CCOC(=O)CCCCCCCC(=O)OCC=C", "values": [
      {"measurement": "survivor count", "setting": "dose: 44.0 mg/kg/injection, schedule: Q01DX Z (ip), vehicle: methylcellulose (MC)", "value": "6 of 6"},
      {"measurement": "survivor count", "setting": "dose: 66.0 mg/kg/injection, schedule: Q01DX Z (ip), vehicle: methylcellulose (MC)", "value": "6 of 6"},
      {"measurement": "survivor count", "setting": "[1]", "value": "6 of 6"}
    ]},
    {"smiles": "COc1ccc(OC)c(N(CCN2C(=O)c3ccccc3C2=O)C(=O)CCl)c1", "values": [
      {"measurement": "survivor count", "setting": "dose: 200.0 mg/kg/injection, schedule: Q04DX002 (ip), vehicle: Klucel (hydroxypropylcellulose) (HPC)", "value": "3 of 3"},
      {"measurement": "survivor count", "setting": "dose: 400.0 mg/kg/injection, schedule: Q04DX002 (ip), vehicle: Klucel (hydroxypropylcellulose) (HPC)", "value": "3 of 3"}
    ]},
    {"smiles": "CC(=O)NNC(=O)Nc1cccc(C(F)(F)F)c1", "values": [
      {"measurement": "survivor count", "setting": "dose: 200.0 mg/kg/injection, schedule: Q01DX009 (ip), vehicle: saline with Tween-80", "value": "1 of 3"}
    ]},
    {"smiles": "C=C1CC(Cc2ccccc2)OC1=O", "note": "(stereo not drawn)", "values": [
      {"measurement": "survivor count", "setting": "dose: 200.0 mg/kg/injection, schedule: Q01DX001 (ip), vehicle: saline with Tween-80", "value": "0 of 3"},
      {"measurement": "survivor count", "setting": "[3]", "value": "0 of 3"}
    ]},
    {"smiles": "c1ccc(Sc2ncnc3nc[nH]c23)nc1", "values": [
      {"measurement": "T/C", "setting": "[3]", "value": "126 % of control"},
      {"measurement": "survivor count", "setting": "dose: 600.0 mg/kg/injection, schedule: Q01DX001 (ip), vehicle: saline with Tween-80", "value": "3 of 6"}
    ]}
  ]
}
